Source: PMC11211486
Results are given in words; binding and its absence hold for the method and conditions named.

T1: dN36-MepS (residues 37-162) (E. coli) (UniProt P0AFV4)
T1 sequence: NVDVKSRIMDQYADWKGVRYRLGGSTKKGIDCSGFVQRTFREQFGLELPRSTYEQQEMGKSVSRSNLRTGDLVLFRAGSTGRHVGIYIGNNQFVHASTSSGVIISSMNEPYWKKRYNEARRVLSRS


What was measured:
[1] = biological target: T1, dN36-MepS (residues 37-162) (E. coli); test: NMR 15N relaxation (T1/T2, rotational correlation time); 1D 15N-edited T1 and T2 of 15N mMepS and dN36-MepS alone, 800 MHz, 298 K; τc from T1/T2; both purified
[2] = biological target: NlpI-ΔN (residues 37-294), monomeric mutant of NlpI (E. coli) (UniProt P0AFB1); test: SEC; NlpI (20-294) and NlpI-ΔN (37-294) each run alone (Supplementary Fig. 13A); both purified

binding [1] | binding [2] | Binder
no binding | – | dN36-MepS (residues 37-162) (domain or fragment, UniProt P0AFV4 63-188, 15N-labelled in the NMR experiments) NVDVKSRIMDQYADWKGVRYRLGGSTKKGIDCSGFVQRTFREQFGLELPRSTYEQQEMGKSVSRSNLRTGDLVLFRAGSTGRHVGIYIGNNQFVHASTSSGVIISSMNEPYWKKRYNEARRVLSRS
– | no binding | NlpI-ΔN (residues 37-294), monomeric mutant of NlpI (domain or fragment, UniProt P0AFB1 37-294) TLQQEVILARMEQILASRALTDDERAQLLYERGVLYDSLGLRALARNDFSQALAIRPDMPEVFNYLGIYLTQAGNFDAAYEAFDSVLELDPTYNYAHLNRGIALYYGGRDKLAQDDLLAFYQDDPNDPFRSLWLYLAEQKLDEKQAKEVLKQHFEKSDKEQWGWNIVEFYLGNISEQTLMERLKADATDNTSLAEHLSETNFYLGKYYLSLGDLDSATALFKLAVANNVHNFVEHRYALLELSLLGQDQDDLAESDQQ
